Consider five sequences from publication PMC10858260.

For at least one entry, the source does not settle the construct or the ends of the probe. A negative result means that nothing was seen under these conditions. For some assays here: At least one verdict rests on a figure or table, not on a statement of the authors.

Assay in all cases: BLI
For orientation: In BLI a coated tip is dipped into the sample, and binding shifts an interference pattern.

In data set [1] the test system is ApsR unphosphorylated (Lacticaseibacillus paracasei BL23). The following applies: unphosphorylated; BLI (BLITz, streptavidin sensors, DNA immobilized): 50 mM Tris-HCl pH 7.4, 150 mM NaCl, 0.1% Tween 20; recombinant protein; protein details: N-terminal His6 (pNIC28-Bsa4); label: biotin on reverse primer.
The subject of data set [2] is PsdR unphosphorylated (Lacticaseibacillus paracasei BL23). The following applies: unphosphorylated; BLI (BLITz, streptavidin sensors, DNA immobilized): 50 mM Tris-HCl pH 7.4, 150 mM NaCl, 0.1% Tween 20; recombinant protein; protein details: N-terminal His6 (pNIC28-Bsa4); label: biotin on reverse primer.
Data set [3] concerns ApsR treated with ammonium phosphoramidate (phosphorylated) (Lacticaseibacillus paracasei BL23). The following applies: ammonium phosphoramidate, Mg2+; BLI (BLITz, streptavidin sensors, DNA immobilized): 50 mM Tris-HCl pH 7.4, 150 mM NaCl, 0.1% Tween 20; recombinant protein; protein details: N-terminal His6 (pNIC28-Bsa4); label: biotin on reverse primer.
The subject of data set [4] is PsdR-P (phosphorylated with ammonium phosphoramidate) (Lacticaseibacillus paracasei BL23). To be noted: ammonium phosphoramidate, Mg2+; BLI (BLITz, streptavidin sensors, DNA immobilized): 50 mM Tris-HCl pH 7.4, 150 mM NaCl, 0.1% Tween 20; recombinant protein; protein details: N-terminal His6 (pNIC28-Bsa4); label: biotin on reverse primer.
For data set [5], the system named is ApsR-P (phosphorylated with acetyl-phosphate) (Lacticaseibacillus paracasei BL23). To be noted: acetyl-phosphate, Mg2+; BLI (BLITz, streptavidin sensors, DNA immobilized): 50 mM Tris-HCl pH 7.4, 150 mM NaCl, 0.1% Tween 20; recombinant protein; protein details: N-terminal His6 (pNIC28-Bsa4); label: biotin on reverse primer.

In the case of “TCACGCTTCTCATATTACGAAACTGTTAGCTCATTGTTACGCAATTCGTTGGCGTCATTTTTTCTGAAAACCTATAATGAATGTGTAAATAAAAACGTGG (double strand) [Pdlt]”, the binding result in data set [1], in data set [2] and in data set [3] was “no binding” each time.
Consider “AAACTGCCGATGCTGAGATGATGATGGAAAACTCACTGTTTGGTTTACCTGAAGGGGCAGCCATGGTTACCGATGGCACAACCAATACTTTCCAGGCAGC (double strand) [Flta]”, for which the binding result in data set [4] and in data set [5] was “no binding” each time.
As for “CAATCATCTCGCAAACTTACATCACCTTACAAAAAGGTCAGAAAGGGTGCGAGGGGCTTGTAGATTTCCTATAATGAATAGGAATATAGACACGGAGGAC (double strand) [PmprF]”, the binding result in data set [1], in data set [2] and in data set [3] was “no binding” throughout.
For “GTAAGCTACCTTACCAGCTTGTAAGCAACTACGAATCACTGTAAGTAGGCATGGGGCATCATCCCCGCTAAGCTAATAAATGAAAGGGGACGATCACATG (double strand) [PpsdA]”, the binding result in data set [1], in data set [2] and in data set [3] was “no binding” each time.
With “GGTAAAGAAAGACTAAAGCAGCTTACAAAGCCGTAAGTTACAAACAACCATCCGTTAGGCCATTATCAGGAAAAAGGCAGCCTAACCCGCTATCATAAAG (double strand) [PderA]”, the binding result in data set [1], in data set [2] and in data set [3] was “no binding” throughout.
